Results reported in publication PMC11071249.

Protein sequences, listed by entry. Tags and fused reporters are not part of them. Lines headed by an entry give the natural chain unless they say otherwise; changes in a name come on top.
UniProt Q9Y4B6: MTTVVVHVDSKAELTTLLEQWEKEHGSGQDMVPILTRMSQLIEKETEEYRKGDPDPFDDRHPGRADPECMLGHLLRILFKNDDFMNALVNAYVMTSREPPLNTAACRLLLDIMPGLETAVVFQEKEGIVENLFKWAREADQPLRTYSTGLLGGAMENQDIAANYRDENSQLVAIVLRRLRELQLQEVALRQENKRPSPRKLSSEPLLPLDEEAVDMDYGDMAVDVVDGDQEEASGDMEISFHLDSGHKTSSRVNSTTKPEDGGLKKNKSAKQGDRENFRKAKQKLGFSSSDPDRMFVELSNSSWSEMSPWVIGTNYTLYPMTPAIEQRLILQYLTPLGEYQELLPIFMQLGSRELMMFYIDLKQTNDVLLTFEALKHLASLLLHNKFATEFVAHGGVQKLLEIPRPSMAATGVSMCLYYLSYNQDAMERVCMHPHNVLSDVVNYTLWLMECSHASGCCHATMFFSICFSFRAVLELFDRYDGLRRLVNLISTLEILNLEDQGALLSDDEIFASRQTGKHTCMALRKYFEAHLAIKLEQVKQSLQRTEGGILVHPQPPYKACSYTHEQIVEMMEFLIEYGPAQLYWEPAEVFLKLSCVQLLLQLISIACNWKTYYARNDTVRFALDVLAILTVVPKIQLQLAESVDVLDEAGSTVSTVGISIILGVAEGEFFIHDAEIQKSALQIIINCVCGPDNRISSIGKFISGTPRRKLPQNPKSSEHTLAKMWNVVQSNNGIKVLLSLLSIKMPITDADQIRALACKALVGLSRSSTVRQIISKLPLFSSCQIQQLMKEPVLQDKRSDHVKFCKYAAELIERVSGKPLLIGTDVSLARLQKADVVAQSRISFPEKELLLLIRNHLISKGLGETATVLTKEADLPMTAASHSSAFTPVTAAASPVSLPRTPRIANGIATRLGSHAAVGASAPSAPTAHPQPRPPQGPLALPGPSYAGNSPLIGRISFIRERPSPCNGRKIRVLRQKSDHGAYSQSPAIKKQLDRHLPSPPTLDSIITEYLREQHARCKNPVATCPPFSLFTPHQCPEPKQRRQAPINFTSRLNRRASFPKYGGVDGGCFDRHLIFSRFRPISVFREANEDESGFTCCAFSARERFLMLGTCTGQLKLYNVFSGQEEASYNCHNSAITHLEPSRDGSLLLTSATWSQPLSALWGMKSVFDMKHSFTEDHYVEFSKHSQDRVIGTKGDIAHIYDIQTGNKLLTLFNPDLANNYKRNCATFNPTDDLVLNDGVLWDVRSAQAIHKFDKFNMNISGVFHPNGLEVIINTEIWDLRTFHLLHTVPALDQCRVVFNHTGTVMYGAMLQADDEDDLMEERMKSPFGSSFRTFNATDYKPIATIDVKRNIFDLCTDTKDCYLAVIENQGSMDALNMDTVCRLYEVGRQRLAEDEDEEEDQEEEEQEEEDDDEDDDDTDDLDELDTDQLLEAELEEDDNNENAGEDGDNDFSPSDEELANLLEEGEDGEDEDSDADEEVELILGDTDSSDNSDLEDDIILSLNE
UniProt Q8TEW0: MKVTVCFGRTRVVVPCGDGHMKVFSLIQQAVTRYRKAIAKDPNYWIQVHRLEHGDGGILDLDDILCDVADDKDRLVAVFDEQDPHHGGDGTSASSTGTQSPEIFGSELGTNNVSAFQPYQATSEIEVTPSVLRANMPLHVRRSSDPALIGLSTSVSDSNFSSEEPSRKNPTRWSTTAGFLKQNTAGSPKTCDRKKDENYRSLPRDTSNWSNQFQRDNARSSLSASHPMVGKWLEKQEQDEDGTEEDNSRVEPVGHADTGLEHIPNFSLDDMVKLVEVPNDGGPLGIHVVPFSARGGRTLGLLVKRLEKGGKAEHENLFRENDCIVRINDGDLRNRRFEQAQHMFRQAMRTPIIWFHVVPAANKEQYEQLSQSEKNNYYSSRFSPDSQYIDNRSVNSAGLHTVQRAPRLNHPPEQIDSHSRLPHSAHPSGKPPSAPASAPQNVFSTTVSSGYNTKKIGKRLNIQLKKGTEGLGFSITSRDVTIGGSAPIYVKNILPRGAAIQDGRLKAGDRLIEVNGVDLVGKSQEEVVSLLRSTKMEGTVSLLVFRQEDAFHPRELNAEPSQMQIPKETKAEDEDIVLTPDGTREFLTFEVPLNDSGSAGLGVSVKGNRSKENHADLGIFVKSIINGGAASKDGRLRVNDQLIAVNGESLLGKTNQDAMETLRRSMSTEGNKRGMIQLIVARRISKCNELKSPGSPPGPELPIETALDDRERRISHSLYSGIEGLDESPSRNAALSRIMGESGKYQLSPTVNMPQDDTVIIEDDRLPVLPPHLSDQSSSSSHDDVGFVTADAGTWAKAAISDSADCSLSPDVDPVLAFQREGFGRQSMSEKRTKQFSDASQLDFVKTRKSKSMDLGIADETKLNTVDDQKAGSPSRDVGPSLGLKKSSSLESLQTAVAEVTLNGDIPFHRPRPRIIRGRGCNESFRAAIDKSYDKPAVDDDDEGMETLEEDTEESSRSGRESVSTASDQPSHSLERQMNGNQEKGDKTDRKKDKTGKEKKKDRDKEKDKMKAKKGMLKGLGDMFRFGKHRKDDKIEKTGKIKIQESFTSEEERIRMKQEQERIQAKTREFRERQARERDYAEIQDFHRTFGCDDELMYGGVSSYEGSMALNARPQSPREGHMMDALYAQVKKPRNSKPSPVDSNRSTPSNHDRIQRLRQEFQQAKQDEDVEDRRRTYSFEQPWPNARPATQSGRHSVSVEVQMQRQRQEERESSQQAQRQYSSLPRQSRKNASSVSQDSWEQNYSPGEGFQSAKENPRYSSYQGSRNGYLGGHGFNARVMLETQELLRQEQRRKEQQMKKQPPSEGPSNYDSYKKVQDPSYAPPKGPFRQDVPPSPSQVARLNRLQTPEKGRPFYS

Target: DCAF1 C-terminus containing residues 1339–1507 (UniProt Q9Y4B6)
Test: co-IP; DCAF1 deletion mutants transiently transfected into HCC cells; immunoprecipitation and Western blot

binding: binds
Substance: par-3 family cell polarity regulator (PARD3) (from UniProt Q8TEW0 1-1356)

These are yes or no findings as the source states them, for the method shown. Binding seen in cells or lysates may run through a third protein. Binding calls can cover weak binding; strength is not graded here.
